Literature values, collected in patent publication US20250170072A1, “NOVEL COMPOSITIONS FOR REDUCING METHANE PRODUCTION IN RUMINANT ANIMALS” (FUTUREFEED PTY LTD, priority 2022, published 2025).
Some results were stated once for a whole list of compounds, not compound by compound. At least one compound was matched to its structure with a doubt left.

System: rumen fluid
Conditions: in DMSO, added to rumen fluid; cited from earlier work

Row | Structure (SMILES) | concentration that significantly inhibits the production of CH4 compared to control
1 | ClC(Br)Br [dibromochloromethane] | ≥ 5 µM
2 | BrC(Br)Br [bromoform, tribromomethane] | ≥ 5 µM
